Experimental data as given in patent US12263177B2, “Biologically active ganoderma lucidum compounds and synthesis of anticancer derivatives; ergosterol peroxide probes for cellular localization” (priority 2019, dated 2025).
Entries after “also recorded” stand apart in the source; their conditions may differ.

Key:
HMEC = experiment: Cytotoxicity of EP probes via CTG assay, normal cells; format: cell-based; details: therapeutic index, HMEC EC50 / SUM149 EC50
MDA-MB-231 [1] = experiment: Washout experiment (intracellular accumulation); format: cell-based, human; details: 1 μM
MDA-MB-231 [2] = experiment: Co-localization studies with organelle trackers; format: cell-based, human

| SMILES | TI(HMEC/SUM149) (HMEC) | other results |
| --- | --- | --- |
| CC(C)C(C)C=CC(C)C1CCC2C1(C)CCC1C23C=CC2(CC(OC(=O)CCCC(=O)O)CCC12C)OO3 (stereo not drawn) [3i] | >4 | – |
| COC(=O)CCc1ccc2n1[B-](F)(F)[N+]1=C(C)C=C(C)C1=C2 [BodipFl methyl ester, reference compound] | – | intracellular accumulation after washout / cell staining (MDA-MB-231 [1]): no fluorescence of the control compound is observed after washing |
| CC(=O)O[C@H]1C(=O)[C@@]2(C)[C@H]([C@H](OC(=O)c3ccccc3)[C@]3(O)C[C@H](OC(=O)[C@H](O)[C@@H](NC(=O)c4ccccc4)c4ccccc4)C(C)=C1C3(C)C)[C@]1(OC(C)=O)CO[C@@H]1C[C@@H]2O [Taxol, reference compound] | >800 | – |
| C#CCCCC(=O)OC1CCC2(C)C3CCC4(C)C(C(C)C=CC(C)C(C)C)CCC4C34C=CC2(C1)OO4 (stereo not drawn) [3j] | >4 | – |
| CC(C)C(C)C=CC(C)C1CCC2C1(C)CCC1C23C=CC2(CC(OC(=O)Cn4cc(CNC(=O)c5ccc6c(c5)C(=O)OC65c6ccc(N(C)C)cc6Oc6cc(N(C)C)ccc65)nn4)CCC12C)OO3 (stereo not drawn) [3l] | >1 | intracellular accumulation after washout / cell staining (MDA-MB-231 [1]): did not accumulate in the cell at all; also recorded: no cell staining was observed |
| CCCCCOC(=O)Nc1nc(=O)n([C@@H]2O[C@H](C)[C@@H](O)[C@H]2O)cc1F [Capecitabin, reference compound] | >2 | – |
| CC(C)C(C)C=CC(C)C1CCC2C1(C)CCC1C23C=CC2(CC(OC(=O)CN=[N+]=[N-])CCC12C)OO3 (stereo not drawn) [3d] | >2 | – |
| CC(C)[C@@H](C)/C=C/[C@@H](C)[C@H]1CC[C@@H]2[C@]1(C)CC[C@H]1[C@]23C=C[C@]2(C[C@@H](O)CC[C@]12C)OO3 [EP, ergosterol peroxide] | >3 | – |
| CC(C)C(C)C=CC(C)C1CCC2C1(C)CCC1C23C=CC2(CC(=O)CCC12C)OO3 (stereo not drawn) [3a] | >3 | – |
| CCOP(=O)(COC1CCC2(C)C3CCC4(C)C(C(C)C=CC(C)C(C)C)CCC4C34C=CC2(C1)OO4)OCC (stereo not drawn) [3f] | >4 | – |
| CC(C)C(C)C=CC(C)C1CCC2C1(C)CCC1C23C=CC2(CC(OCP(=O)(O)O)CCC12C)OO3 (stereo not drawn) [3g] | >4 | – |
| CC(C)C(C)C=CC(C)C1CCC2C1(C)CCC1C23C=CC2(CC(OC(=O)CCl)CCC12C)OO3 (stereo not drawn) [3c] | >4 | – |
| CC(C)C(C)C=CC(C)C1CCC2C1(C)CCC1C23C=CC2(CC(OC(=O)CCCCC4SCC5NC(=O)NC54)CCC12C)OO3 (stereo not drawn) [3k] | >6 | – |
| COc1cccc2c1C(=O)c1c(O)c3c(c(O)c1C2=O)C[C@@](O)(C(=O)CO)C[C@@H]3O[C@H]1C[C@H](N)[C@H](O)[C@H](C)O1 [Doxorubicin, reference compound] | >11 | – |
| CC(C)C(C)C=CC(C)C1CCC2C1(C)CCC1C23C=CC2(CC(OP(=O)([O-])OCC[N+](C)(C)C)CCC12C)OO3 (stereo not drawn) [3h] | >4 | – |
| Cc1cc(C)n2c1C=C1C=CC(CCC(=O)OC3CCC4(C)C5CCC6(C)C(C(C)C=CC(C)C(C)C)CCC6C56C=CC4(C3)OO6)=[N+]1[B-]2(F)F (stereo not drawn) [3m] | >6 | intracellular accumulation after washout / cell staining (MDA-MB-231 [1]): Fluorescence of compound 3m is observed after washing; also recorded: distributes across the cytosol; co-localization with peroxisome (MDA-MB-231 [2]; Ruby-red peroxisome stably transfected cells): no co-localization was observed; co-localization with endoplasmic reticulum (MDA-MB-231 [2]; blue/white ER tracker, consistent in MDA-MB-231 and SUM-149): good co-localization was recorded; co-localization with Golgi (MDA-MB-231 [2]; golgi-RFP cells): The same observation; co-localization with lysosome (MDA-MB-231 [2]; lysotracker): no co-localization was recorded; co-localization with mitochondria (MDA-MB-231 [2]; mitotracker): no overlap was detected |
| C#CCOC1CCC2(C)C3CCC4(C)C(C(C)C=CC(C)C(C)C)CCC4C34C=CC2(C1)OO4 (stereo not drawn) [3e] | >2 | – |
